At least one compound was matched to its structure with a doubt left.
Columns and labels:
neural stem cells = assay: Effect on proliferative activity of neural stem cells (BrdU incorporation); format: cell-based, rat; details: cultivation for 24 hours under differentiation induction
Protocol: In the same way as Experimental Example 1, neural stem cells were divided into DHA group and control (DHA free) group, and 10 μM 5-bromo-2′-droxyuridine (BrdU; Sigma) was added under culture conditions for differentiation induction, followed by cultivation for 24 hours. Thereafter, the cells were treated with 2N HCl at 37° C. for 10 minutes and treated with 0.1 M borate buffer (Na2B4O7, pH 8.5) for 5 minutes. The cell were treated with anti-mouse BrdU antibody (1:1000 Chemicon) and then treated with FITC-labeled secondary antibody.
7 random fields per well were sampled, and the numbers of BrdU-positive cells were counted to calculate a ratio of the number of BrdU-positive cells to the number of total cells. The number of total cells was counted by PI staining. Statistical analysis was evaluated by student's t-test.

rat neural stem cells = assay: Differentiation promoting effect in rat neural stem cells (Tuj1/PI immunohistochemical staining); format: cell-based; details: for neurite elongation, photographs FIGS. 1 and 2 / number of differentiated cells (cells differentiated into neuron), photographs FIGS. 1 and 2: day 4 and day 7, 450 μL N2 medium + 50 μL N2 medium containing 100 μM EPA or DHA and 1% FA-free BSA, vs control group; for numbers of cells differentiated into neurocytes per 1 cm^2 (FIG. 3) / ratio of the number of cells differentiated into neurocytes to the number of total cells (FIG. 4): day 7 after addition, compared to the control group
[1] = tested on: neural stem cells and cells differentiated from neural stem cells; assay: Effect on apoptosis of neural stem cells and cells differentiated from neural stem cells (pycnotic cells by PI staining, TUNEL); format: cell-based, rat; details: cultivated under differentiation induction for 7 days
Protocol: In the same way as Experimental Example 1, neural stem cells were divided into DHA group and control (DHA free) group and cultivated under culture conditions for differentiation induction for 7 days, and pycnotic cells were evaluated by PI staining.
Apoptosis in the pycnotic cells were confirmed by TUNEL staining. The TUNEL staining was performed using Red In Situ Apoptosis Detection kit (Chemicon). Cells of the DHA group and the control group were cultivated for 7 days under the above-mentioned differentiation conditions and fixed with 4% paraformaldehyde, followed by incubation together with digoxigenin-dUTP in the presence of TdT at 37° C. for 1 hour. TUNEL-labeled cells were detected with Rhodamine conjugated anti-digoxigenin antibody and observed using confocal scanning laser microscopy.

## CC/C=C\C/C=C\C/C=C\C/C=C\C/C=C\C/C=C\CCC(=O)O [DHA, docosahexaenoic acid]
Neural stem cells
  numbers of total cells (PI staining), DHA group vs control group: no difference
Rat neural stem cells
  neurite elongation, photographs FIGS. 1 and 2: neurite elongation were observed
  number of differentiated cells (cells differentiated into neuron), photographs FIGS. 1 and 2: an increase in the number of differentiated cells
  numbers of cells differentiated into neurocytes per 1 cm^2 (FIG. 3): significantly increase
  ratio of the number of cells differentiated into neurocytes to the number of total cells (FIG. 4): significantly increase
[1]
  numbers of total cells, DHA group vs control group: no differences

## CC/C=C\C/C=C\C/C=C\C/C=C\C/C=C\CCCC(=O)O [EPA, eicosapentaenoic acid]
Rat neural stem cells
  neurite elongation, photographs FIGS. 1 and 2: neurite elongation were observed
  number of differentiated cells (cells differentiated into neuron), photographs FIGS. 1 and 2: an increase in the number of differentiated cells
  numbers of cells differentiated into neurocytes per 1 cm^2 (FIG. 3): significantly increase
  ratio of the number of cells differentiated into neurocytes to the number of total cells (FIG. 4): significantly increase

Reference: patent US20100254951A1, “Nerve Regeneration Promoting Agent” (MOCHIDA PHARMACEUTICAL CO., LTD., priority 2005, published 2010)
